{"source": "PubChem BioAssay AID743121 | NCATS – 2013", "purpose": "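Genes whose silencing strengthens cell killing by camptothecin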 (primary screen)", "cells": "MDA-MB-231 cells, a human breast cancer line", "reagents": "single siRNA against human genes, 20 nM siRNA (0.8 pmol per well)", "timing": "120 h (drug added 48 h after transfection, read 72 h later)", "challenge": "camptothecin 20 nM (about EC30) for 72 h; vehicle 0.1% DMSO in parallel plates", "detection": "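Cell viability by ATP luminescence (CellTiter-Glo) as % of non-targeting siRNA wells, and the log2 ratio of viability without drug over viability with camptothecin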", "direction": "log2 vehicle/camptothecin viability: higher = stronger sensitisation to camptothecin", "active means": "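Each gene scored by redundant siRNA activity (RSA) over its individual siRNA ratios; a gene is called active at p < 0.001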", "note": "The deposit covers about 26,000 reagents; below is an unselected part. 167 of them (0.63%) were called active. 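Calls are per gene from RSA p-values that are not deposited; an individual active-marked siRNA can sensitise only weakly.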 Entries without a mark were called inactive. Reagents against one gene are numbered here. Further read-outs or replicates are left out here."}
{"gene":"NUP42 (nucleoporin 42)","reagent":1,"log2 vehicle/camptothecin viability":-0.0536}
{"gene":"NUP42 (nucleoporin 42)","reagent":2,"log2 vehicle/camptothecin viability":-0.176}
{"gene":"NUP42 (nucleoporin 42)","reagent":3,"log2 vehicle/camptothecin viability":-0.0127}
{"gene":"NUP42 (nucleoporin 42)","reagent":4,"log2 vehicle/camptothecin viability":-0.569}
{"gene":"CTDSP2 (CTD small phosphatase 2)","reagent":1,"log2 vehicle/camptothecin viability":-0.332}
{"gene":"CTDSP2 (CTD small phosphatase 2)","reagent":2,"log2 vehicle/camptothecin viability":-0.43}
{"gene":"CTDSP2 (CTD small phosphatase 2)","reagent":3,"log2 vehicle/camptothecin viability":-0.258}
{"gene":"CTDSP2 (CTD small phosphatase 2)","reagent":4,"log2 vehicle/camptothecin viability":-0.237}
{"gene":"PHPT1 (phosphohistidine phosphatase 1)","reagent":1,"log2 vehicle/camptothecin viability":0.301}
{"gene":"PHPT1 (phosphohistidine phosphatase 1)","reagent":2,"log2 vehicle/camptothecin viability":-0.0329}
{"gene":"PHPT1 (phosphohistidine phosphatase 1)","reagent":3,"log2 vehicle/camptothecin viability":-0.55}
{"gene":"PHPT1 (phosphohistidine phosphatase 1)","reagent":4,"log2 vehicle/camptothecin viability":-0.281}
{"gene":"NCOA1 (nuclear receptor coactivator 1)","reagent":1,"log2 vehicle/camptothecin viability":0.0562}
{"gene":"NCOA1 (nuclear receptor coactivator 1)","reagent":2,"log2 vehicle/camptothecin viability":0.099}
{"gene":"NCOA1 (nuclear receptor coactivator 1)","reagent":3,"log2 vehicle/camptothecin viability":-0.413}
{"gene":"NCOA1 (nuclear receptor coactivator 1)","reagent":4,"log2 vehicle/camptothecin viability":-0.429}
{"gene":"HDAC10 (histone deacetylase 10)","reagent":1,"log2 vehicle/camptothecin viability":-0.203}
{"gene":"HDAC10 (histone deacetylase 10)","reagent":2,"log2 vehicle/camptothecin viability":-0.00348}
{"gene":"HDAC10 (histone deacetylase 10)","reagent":3,"log2 vehicle/camptothecin viability":-0.03}
{"gene":"HDAC10 (histone deacetylase 10)","reagent":4,"log2 vehicle/camptothecin viability":-0.206}
{"gene":"SERPINA3 (serpin family A member 3)","reagent":1,"log2 vehicle/camptothecin viability":-0.241}
{"gene":"SERPINA3 (serpin family A member 3)","reagent":2,"log2 vehicle/camptothecin viability":0.0192}
{"gene":"SERPINA3 (serpin family A member 3)","reagent":3,"log2 vehicle/camptothecin viability":0.0101}
{"gene":"MAML2 (mastermind like transcriptional coactivator 2)","reagent":1,"log2 vehicle/camptothecin viability":-0.244}
{"gene":"MAML2 (mastermind like transcriptional coactivator 2)","reagent":2,"log2 vehicle/camptothecin viability":0.0576}
{"gene":"MAML2 (mastermind like transcriptional coactivator 2)","reagent":3,"log2 vehicle/camptothecin viability":-0.816}

As entered above.
For “log2 vehicle/camptothecin viability”, MAML2 (mastermind like transcriptional coactivator 2) #2 is entered as 0.0576
For “log2 vehicle/camptothecin viability”, CTDSP2 (CTD small phosphatase 2) #2 is entered as -0.43
Result for PHPT1 (phosphohistidine phosphatase 1) #4 under “log2 vehicle/camptothecin viability”: -0.281
